Measured values taken from patent publication US20100021918A1, “METHOD FOR ASSAYING ACTION OF ANTITUMOR AGENT USING SPLICING DEFECTS AS INDEX” (Eisai R&D Management Co., Ltd., priority 2007, published 2010).
The source gives many values for each of these; only a part stands here.

System: human colon carcinoma cell strain WiDr
Assay: Microarray analysis (2), reviewed conditions, intron expression, Table 3
Format: cell-based
Description: WiDr cells were first suspended in RPMI1640 medium (containing 10% FBS, penicillin, and streptomycin) and seeded in a 10 cm dish (2×10^6 cells/dish). After an overnight culture in an incubator with 5% carbon dioxide gas at 37° C., the medium was changed with medium containing 14 nM of (8E,12E,14E)-7-((4-cycloheptylpiperazin-1-yl)carbonyl)oxy-3,6,16,21-tetrahydroxy-6,10,12,16,20-pentamethyl-18,19-epoxytricosa-8,12,14-trien-11-olide or containing vehicle alone. After cultured for additional six hours, TRI reagent (SIGMA) were added to the cells and the cells were harvested. RNA was purified in accordance with the protocol of TRI reagent, followed by further purification with RNeasy (QIAGEN). Absorbance at 260 nm was measured to quantify an amount of RNA. This experiment was repeated three times and RNA samples (n=3) were prepared.
Ribosomal RNA was removed from 1 μg of each total RNA of control cells (n=3) and cells with the treatment (n=3) by using RiboMinus Human/Mouse Transcriptome Isolation Kit (Invitrogen). Single stranded cDNA synthesis, double stranded cDNA synthesis, cRNA synthesis, second single stranded cDNA synthesis, cDNA fragmentation, and cDNA labeling in order were carried out for the total RNA from which ribosomal RNA was removed, by using GeneChip Whole Transcript Sense Target Labeling and Control Reagents (Affymetrix) to make a cDNA probe. The cDNA probe was used for hybridization with Human Exon 1.0 ST Array (Affymetrix). The array was washed and stained, and luminescence intensity was measured by a scanner.
Analysis conditions were reviewed in the data used in Example 3. Genes containing increased introns upon treatment with (8E,12E,14E)-7-((4-cycloheptylpiperazin-1-yl)carbonyl)oxy-3,6,16,21-tetrahydroxy-6,10,12,16,20-pentamethyl-18,19-epoxytricosa-8,12,14-trien-11-olide were identified.
In order to consider the analysis conditions, variations in the data from the samples with identical conditions were studied. […] It turned out that, by analyzing under conditions where the expression level was more than 100 and change in the expression level was more than five times, a probe set with increased expression can be extracted.
Probe sets showing that the normalized change in the level expression of the probe set in the group with the treatment was more than 5 times; the expression level of the probe set and the gene in the group with the treatment were more than 100; and probe set annotation was “extended, full, free”, were picked out. Welch's t-test was conducted with the probe sets extracted for the treated group and the control group to determine a p and q value. A gene containing the probe sets with the q value of less than 5% was determined as a candidate gene with increased expression level of the intron regions (Table 3).
In Table 3, for each gene evaluated, gene name (Gene Name), abbreviated name (Gene Symbol), accession number (Accession), alias name (Synonym), transcription cluster number in Human Exon 1.0 ST Array (Human Exon 1.0 ST Array Transcript Cluster ID), chromosome number (Chromosome), type of strand (Strand), start region (Start), stop region (Stop), and change in expression level (Fold Change) were respectively shown.

CCC(O)C(C)C1OC1CC(C)(O)/C=C/C=C(\C)C1OC(=O)CC(O)CCC(C)(O)C(OC(=O)N2CCN(C3CCCCCC3)CC2)/C=C/C1C (stereo not shown) [E7107, (8E,12E,14E)-7-((4-cycloheptylpiperazin-1-yl)carbonyl)oxy-3,6,16,21-tetrahydroxy-6,10,12,16,20-pentamethyl-18,19-epoxytricosa-8,12,14-trien-11-olide]
Fold Change (gene NOL5A, intron expression, treated vs control): 6.81 | Fold Change (gene NOL8, intron expression, treated vs control): 7.25 | Fold Change (gene NOL9, change in expression level, treated vs control): 13.58 | Fold Change (gene NOL11, Transcript Cluster ID 3732373, intron expression, treated vs control): 9.45 | Fold Change (gene NOLA1, change in expression level, treated vs control): 13.42 | Fold Change (gene NP, intron expression, treated vs control): 6.61 | Fold Change (gene NPEPPS, intron expression, treated vs control): 7.11 | Fold Change (gene NR1H2, Transcript Cluster ID 3839276): 5.28 | Fold Change (gene NSUN2, intron expression, treated vs control): 7.06 | Fold Change (gene NTSR1, Transcript Cluster ID 3892873, intron expression, treated vs control): 9.10 | Fold Change (gene NUMA1, intron expression, treated vs control): 7.25 | Fold Change (gene NUP54, intron expression, treated vs control): 7.04 | Fold Change (gene NUP88, change in expression level, treated vs control): 6.41 | Fold Change (gene NUP153, Transcript Cluster ID 2943808, intron expression, treated vs control): 9.56 | Fold Change (gene NUP160, intron expression, treated vs control): 6.74 | Fold Change (gene NUP214, change in expression level, treated vs control): 11.18 | Fold Change (gene NUPL1, change in expression level, treated vs control): 10.97 | Fold Change (gene ODC1, intron expression, treated vs control): 7.27 | Fold Change (gene OGFR, intron expression, treated vs control): 6.65 | Fold Change (gene ORC2L // MGC39518, intron expression, treated vs control): 7.31 | Fold Change (gene ORC5L, Transcript Cluster ID 3065963): 5.04 | Fold Change (gene OSBP, change in expression level, treated vs control): 6.51 | Fold Change (gene OSBPL2, Transcript Cluster ID 3892565, intron expression, treated vs control): 9.91 | Fold Change (gene OTUD4, Transcript Cluster ID 2788195, intron expression, treated vs control): 10.88 | Fold Change (gene OXR1, change in expression level, treated vs control): 6.50 | Fold Change (gene PA2G4 // (symbol continues below the shown rows), intron expression, treated vs control): 7.23 | Fold Change (gene PAPOLA, change in expression level, treated vs control): 6.46 | Fold Change (gene PCBP2, change in expression level, treated vs control): 6.23 | Fold Change (gene PCGF3, intron expression, treated vs control): 7.41 | Fold Change (gene PDCD6 // AHRR, intron expression, treated vs control): 6.81 | Fold Change (gene PDCD7, Transcript Cluster ID 3629475, intron expression, treated vs control): 9.97 | Fold Change (gene PDF // COG8, Transcript Cluster ID 3696524): 5.20 | Fold Change (gene PDHX // MAPK10, Transcript Cluster ID 3326540, intron expression, treated vs control): 9.81 | Fold Change (gene PDRG1, Transcript Cluster ID 3902609): 5.09 | Fold Change (gene PDZD8, intron expression, treated vs control): 7.39 | Fold Change (gene PES1, Transcript Cluster ID 3957445): 5.05 | Fold Change (gene PGK1, change in expression level, treated vs control): 6.19 | Fold Change (gene PIAS1, Transcript Cluster ID 3599280, intron expression, treated vs control): 9.03 | Fold Change (gene PICALM, change in expression level, treated vs control): 13.00 | Fold Change (gene PIGG, intron expression, treated vs control): 7.22 | Fold Change (gene PIK3R4, Transcript Cluster ID 2695200, intron expression, treated vs control): 9.79 | Fold Change (gene PLK1, Transcript Cluster ID 3653072, intron expression, treated vs control): 10.82 | Fold Change (gene PLK2, change in expression level, treated vs control): 14.01 | Fold Change (gene PLK4, Transcript Cluster ID 2742985, intron expression, treated vs control): 10.88 | Fold Change (gene PMM2, change in expression level, treated vs control): 6.22 | Fold Change (gene PMPCA, change in expression level, treated vs control): 16.01 | Fold Change (gene POLR1C, Transcript Cluster ID 2908052, intron expression, treated vs control): 10.29 | Fold Change (gene POLR1E, change in expression level, treated vs control): 5.97 | Fold Change (gene POLR2D // WDR33, Transcript Cluster ID 2575134): 5.45 | Fold Change (gene POLR3E, change in expression level, treated vs control): 6.13 | Fold Change (gene POMP, change in expression level, treated vs control): 5.99 | Fold Change (gene PPAN // PPAN-P2RY11, change in expression level, treated vs control): 12.07 | Fold Change (gene PPARBP, change in expression level, treated vs control): 13.29 | Fold Change (gene PPFIBP1, change in expression level, treated vs control): 6.39 | Fold Change (gene PPP1CC, change in expression level, treated vs control): 13.87 | Fold Change (gene PPP1R15B // PIK3C2B, Transcript Cluster ID 2452049): 5.17 | Fold Change (gene PPP2CA, change in expression level, treated vs control): 6.05 | Fold Change (gene PPP2R2A, intron expression, treated vs control): 6.82 | Fold Change (gene PPP4R2, change in expression level, treated vs control): 17.19 | Fold Change (gene PRC1 // IFRD1, Transcript Cluster ID 3639031, intron expression, treated vs control): 10.49 | Fold Change (gene PRDM4 // PRKAR2B, intron expression, treated vs control): 6.56 | Fold Change (gene PRKAR1A, change in expression level, treated vs control): 6.49 | Fold Change (gene PRPF4B, change in expression level, treated vs control): 6.19 | Fold Change (gene PRPF8, change in expression level, treated vs control): 11.12 | Fold Change (gene PRSS23, intron expression, treated vs control): 6.87 | Fold Change (gene PSMB7, Transcript Cluster ID 3225003, intron expression, treated vs control): 8.97 | Fold Change (gene PSMC4, Transcript Cluster ID 3833291): 5.08 | Fold Change (gene PSMC5, Transcript Cluster ID 3730941): 5.18 | Fold Change (gene PSMD3, change in expression level, treated vs control): 12.85 | Fold Change (gene PSMD6, intron expression, treated vs control): 7.47 | Fold Change (gene PSMD7, Transcript Cluster ID 3668617, intron expression, treated vs control): 8.92 | Fold Change (gene PSMD12, intron expression, treated vs control): 6.75 | Fold Change (gene PTBP1, intron expression, treated vs control): 6.96 | Fold Change (gene PTBP2, intron expression, treated vs control): 6.70 | Fold Change (gene PTCD3 // KIF5A, intron expression, treated vs control): 6.91 | Fold Change (gene PTEN, Transcript Cluster ID 3256689): 5.25 | Fold Change (gene PTP4A1, change in expression level, treated vs control): 6.10 | Fold Change (gene PTPN1, change in expression level, treated vs control): 6.45 | Fold Change (gene PTPN12, intron expression, treated vs control): 6.54 | Fold Change (gene PUM2, change in expression level, treated vs control): 13.55 | Fold Change (gene PVR, change in expression level, treated vs control): 14.67 | Fold Change (gene PVRL2, change in expression level, treated vs control): 6.04 | Fold Change (gene PXN, intron expression, treated vs control): 7.47 | Fold Change (gene QSER1, change in expression level, treated vs control): 6.22 | Fold Change (gene RAB5A, change in expression level, treated vs control): 11.19 | Fold Change (gene RAB14, change in expression level, treated vs control): 10.96 | Fold Change (gene RAB22A, Transcript Cluster ID 3890870): 5.42 | Fold Change (gene RABGGTB // MSH4, intron expression, treated vs control): 7.07 | Fold Change (gene RABL5, change in expression level, treated vs control): 6.24 | Fold Change (gene RACGAP1, change in expression level, treated vs control): 6.09 | Fold Change (gene RAD18, Transcript Cluster ID 2662020, intron expression, treated vs control): 9.94 | Fold Change (gene RAE1, change in expression level, treated vs control): 16.46 | Fold Change (gene RAF1 // MAP2, Transcript Cluster ID 2663244, intron expression, treated vs control): 10.61 | Fold Change (gene RAN, Transcript Cluster ID 3438027): 5.36 | Fold Change (gene RANGAP1, Transcript Cluster ID 3961842): 5.24 | Fold Change (gene RARS, Transcript Cluster ID 2839671): 5.08 | Fold Change (gene RASA1, intron expression, treated vs control): 6.60 | Fold Change (gene RASEF, intron expression, treated vs control): 6.52 | Fold Change (gene RASSF7, Transcript Cluster ID 3315952): 5.05 | Fold Change (gene RBM4, Transcript Cluster ID 3336422, intron expression, treated vs control): 9.60 | Fold Change (gene RBM7, change in expression level, treated vs control): 6.20 | Fold Change (gene RBM13, Transcript Cluster ID 3093259): 528 | Fold Change (gene RBM17, change in expression level, treated vs control): 6.47
